These results are taken from PubChem BioAssay AID248 (DTP/NCI, 2004).

This assay relates to L1210 leukemia ip in BDF1 mice, survival T/C. Description: NCI In Vivo Anticancer Drug Screen. Data for tumor model L1210 Leukemia (intraperitoneal) in B6D2F1 (BDF1) mice. Conditions: T/C endpoint: mean survival time, higher T/C = longer survival.
The mark [1] stands for this setting: dose: 400.0 mg/kg/injection, schedule: Q01DX009 (ip), vehicle: saline with Tween-80.
[2] abbreviates: dose: 400.0 mg/kg/injection, schedule: Q01DX009 (ip), vehicle: Klucel (hydroxypropylcellulose) (HPC).
The mark [3] stands for this setting: dose: 200.0 mg/kg/injection, schedule: Q04DX003 (ip), vehicle: Klucel (hydroxypropylcellulose) (HPC).
Setting [4] is: dose: 100.0 mg/kg/injection, schedule: Q01DX001 (ip), vehicle: saline.
The mark [5] stands for this setting: dose: 200.0 mg/kg/injection, schedule: Q01DX001 (ip), vehicle: saline.
[6] abbreviates: dose: 400.0 mg/kg/injection, schedule: Q01DX001 (ip), vehicle: saline.
Where [7] appears, read: dose: 100.0 mg/kg/injection, schedule: Q01DX009 (ip), vehicle: Klucel (hydroxypropylcellulose) (HPC).
[8] abbreviates: dose: 400.0 mg/kg/injection, schedule: Q04DX003 (ip), vehicle: saline.
The mark [9] stands for this setting: dose: 300.0 mg/kg/injection, schedule: Q01DX001 (ip), vehicle: saline.
The mark [10] stands for this setting: dose: 200.0 mg/kg/injection, schedule: Q01DX009 (ip), vehicle: Klucel (hydroxypropylcellulose) (HPC).

Molecules are shown by their SMILES. The list is a part of this screen's results and no random one: it is rich in T/C values a quarter to a half above the control, in often repeated tests (any T/C) and in doses without a T/C. Other doses and runs of a compound stand elsewhere. T/C gives the treated animals as a percentage of the vehicle group. Some doses have a count of surviving animals in place of a T/C: the source files T/C as zero there, which appears to mark a toxic dose or a test without result, not a measured value. Some doses without a T/C left all or most animals alive at the check, yet need not have been tolerated: survival well below the control is almost never listed, so the zero probably covers shortened survival too. Survivors were counted at the toxicity check, usually on the fifth day, unless a day is given; later deaths do not show. Schedules are NCI's codes, read here as Q, the interval in days (D) or hours (H), X, the number of doses. Some entries were tested several times; the values are given in rising order. Some schedules carry Z or #; the key to these is not given. For survival time, the PubChem record calls one and a half times the control and up active, and a quarter to a half above the control has no call in these data; cut-offs in other NCI protocols can differ.

As for `COc1cc2c(cc1I)-c1c(cc(OC)c(OC)c1OC)CC[C@@H]2NC(C)=O`, for the setting “dose: 60.0 mg/kg/injection, schedule: Q01DX Z (ip), vehicle: carboxymethylcellulose (CMC)”, the T/C was 147 % of control. In addition, the survivor count was 2 of 7 (dose: 135.0 mg/kg/injection, schedule: Q01DX Z (ip), vehicle: carboxymethylcellulose (CMC)); 1 of 6 (dose: 165.0 mg/kg/injection, schedule: Q01DX Z (ip), vehicle: carboxymethylcellulose (CMC)); 3 of 7 (dose: 200.0 mg/kg/injection, schedule: Q01DX Z (ip), vehicle: carboxymethylcellulose (CMC)); 6 of 6 (dose: 400.0 mg/kg/injection, schedule: Q04DX003 (ip), vehicle: Klucel (hydroxypropylcellulose) (HPC)).

As to `CC1(C)C2CCC1(C(=O)O)C(=O)C2` (stereo not drawn), the survivor count under setting [1] is listed as 5 of 6. As for `CC(C)=CCC/C(C)=C/COC(=O)C(CC=C(C)C)CCN1CCN(CC=C(C)C)CC1` (stereo not drawn), the survivor count under setting [1] was 6 of 6. Regarding `CC#CC(O)(C(=O)OC1CCN(C)CC1)C(C)CC` (stereo not drawn), the survivor count runs as follows: (dose: 200.0 mg/kg/injection, schedule: Q01DX009 (ip), vehicle: saline with Tween-80) 4 of 6; (dose: 400.0 mg/kg/injection, schedule: Q04DX003 (ip), vehicle: saline with Tween-80) 0 of 6. For `CCOC(=O)c1cc2ccccc2oc1=O`, the survivor count by setting is: (dose: 100.0 mg/kg/injection, schedule: Q01DX001 (ip), vehicle: other) 0 of 4; (dose: 200.0 mg/kg/injection, schedule: Q01DX001 (ip), vehicle: other) 0 of 4; (dose: 200.0 mg/kg/injection, schedule: Q04DX003 (ip), vehicle: saline with Tween-80) 0 of 6; (dose: 400.0 mg/kg/injection, schedule: Q01DX001 (ip), vehicle: other) 0 of 4. Turning to `CC(=O)OC(C)C(C)C(=O)OCC12C3CC4(C)C(=CCC5C6(C)CCC(OC7OC(C(=O)O)C(OC8OC(CO)C(O)C(O)C8O)C(O)C7OC7OCC(O)C(O)C7O)C(C)(CO)C6CCC54C)C1CC(C)(C)C(O3)C2O` (stereo not drawn), the survivor count is, setting by setting: (dose: 10.0 mg/kg/injection, schedule: Q01DX001 (sc), vehicle: steroid suspending solution) 1 of 6; (dose: 20.0 mg/kg/injection, schedule: Q01DX001 (sc), vehicle: steroid suspending solution) 2 of 6; (dose: 40.0 mg/kg/injection, schedule: Q01DX001 (sc), vehicle: steroid suspending solution) 0 of 6; (dose: 80.0 mg/kg/injection, schedule: Q01DX001 (sc), vehicle: steroid suspending solution) 0 of 6; (dose: 100.0 mg/kg/injection, schedule: Q01DX001 (sc), vehicle: steroid suspending solution) 2 of 6; (dose: 200.0 mg/kg/injection, schedule: Q01DX001 (sc), vehicle: steroid suspending solution) 1 of 6. For `O=[N+]([O-])c1cc(S(=O)(=O)F)cc(Cl)c1O`, under setting [2], the survivor count is 0 of 6. Consider `COC(C)c1cnccc1/C(C)=C1/Nc2ccccc2C1=O` (stereo not drawn), for which, under setting [3], the survivor count was 6 of 6. For the molecule `S=C(NCc1ccccc1)[S][Sb]([S]C(=S)NCc1ccccc1)[c]1ccccc1`, the survivor count is, setting by setting: (dose: 20.0 mg/kg/injection, schedule: Q01DX001 (ip), vehicle: saline) 3 of 6; (dose: 40.0 mg/kg/injection, schedule: Q01DX001 (ip), vehicle: saline) 1 of 6; (dose: 80.0 mg/kg/injection, schedule: Q01DX001 (ip), vehicle: saline) 1 of 6; under setting [4], 1 of 4; under setting [5], 1 of 4; under setting [6], 0 of 4. Turning to `Nc1nc2ccccc2nc1N`, under “dose: 200.0 mg/kg/injection, schedule: Q01DX009 (ip), vehicle: saline”, the survivor count was 2 of 6. Regarding `CN=C(N)c1ccc(N=C(N)c2ccc(N=C(N)c3ccc(NC(=O)Nc4cccc(NC(=O)Nc5ccc(C(N)=Nc6ccc(C(N)=Nc7ccc(C(N)=NC)cc7)cc6)cc5)c4)cc3)cc2)cc1`, where the note is “dose: 15.0 mg/kg/injection, schedule: Q01DX001 (ip), vehicle: water”, the T/C is 137 % of control. The survivor count is 2 of 10 and 4 of 10 (dose: 112.0 mg/kg/injection, schedule: Q01DX001 (ip), vehicle: water); 1 of 6 (dose: 150.0 mg/kg/injection, schedule: Q01DX001 (ip), vehicle: water). Take `CCCC[P+](CCCC)(CCCC)CC(=O)OCC`: the survivor count (dose: 30.0 mg/kg/injection, schedule: Q01DX001 (ip), vehicle: carboxymethylcellulose (CMC)) is on record as 6 of 6. For `CCCCCCCCCCCCSC(=O)Nc1ccc([N+](=O)[O-])cc1Cl`, the survivor count under setting [7] is reported as 3 of 6. With `CCN(CC)Cc1cc(Nc2nc(/C=C/c3ccc(Cl)cc3)nc(Cl)c2-c2ccc(Cl)cc2)ccc1O`, the survivor count runs as follows: under setting [4], 6 of 6; under setting [5], 6 of 6; under setting [6], 6 of 6. Turning to `FC(F)(F)c1ccc2c(c1)N(CCCN1CCN(CCOc3ccccc3)CC1)c1ccccc1S2`, the T/C (dose: 12.5 mg/kg/injection, schedule: Q04DX003 (ip), vehicle: saline) is 126 % of control. Besides, the survivor count was 6 of 6 (dose: 25.0 mg/kg/injection, schedule: Q04DX003 (ip), vehicle: saline); 3 of 6 (dose: 50.0 mg/kg/injection, schedule: Q04DX003 (ip), vehicle: saline); 0 of 6 (dose: 100.0 mg/kg/injection, schedule: Q04DX003 (ip), vehicle: saline). On to `BrCc1ccc(CBr)c(Br)c1`, for which the survivor count is listed as 0 of 6 under setting [7] and 6 of 6 under setting [3].

As to `O=C(N/N=C/c1ccco1)c1cccnc1`, the survivor count under setting [2] is recorded as 2 of 6. In the case of `O=CNC1CCCCC1`, the survivor count (dose: 160.0 mg/kg/injection, schedule: Q01DX001 (ip), vehicle: saline with Tween-80) was 1 of 6. On to `CNC(=O)c1ccc(/C=C/c2c[nH]c3ccccc23)[n+](C)c1`, for which the survivor count under setting [6] is 3 of 6. On to `CN=C1N[N+]2=C(C)CCCC2(C)S1` (stereo not drawn), for which the survivor count under setting [8] is recorded as 0 of 4. Consider `Cc1cccc(NC(=O)CCc2ccc(Cl)cc2)n1`, for which the survivor count is, setting by setting: under setting [5], 3 of 6; under setting [6], 0 of 6. Regarding `O=C1c2ccccc2C(=O)c2c(NC(=O)C(Cl)CCl)cccc21` (stereo not drawn), the survivor count is, setting by setting: (dose: 75.0 mg/kg/injection, schedule: Q01DX001 (ip), vehicle: saline) 6 of 6; under setting [9], 6 of 6.

Consider `C[N+](C)(C)Cc1ccccc1C=C(c1ccccc1)c1ccccc1`, for which the survivor count (dose: 100.0 mg/kg/injection, schedule: Q04DX003 (ip), vehicle: Klucel (hydroxypropylcellulose) (HPC)) is listed as 2 of 6. Consider `Nc1[nH]c(=O)ncc1-c1ccc(Cl)cc1`, for which the survivor count under setting [10] was 0 of 3. For `C[CH2][Ge]([CH2]C)([CH2]C)[CH2]CCO`, the survivor count (dose: 400.0 mg/kg/injection, schedule: Q04DX002 (ip), vehicle: saline with Tween-80) was 0 of 3.

Regarding `CCCC1(CN2c3ccccc3Sc3ccc(Cl)cc32)CCN(CC)C1` (stereo not drawn), the survivor count (dose: 200.0 mg/kg/injection, schedule: Q04DX003 (ip), vehicle: saline) is on record as 4 of 6 and the survivor count under setting [8] was 0 of 6. Take `BrC1C=CC=CN1C/C=C/CN1C=CC=CC1Br` (stereo not drawn): the survivor count under setting [9] is reported as 0 of 6. As for `CC1(C)NC(=O)C(/C=C/c2ccccc2)O1` (stereo not drawn), the survivor count is, setting by setting: under setting [10], 6 of 6; under setting [2], 4 of 6. Turning to `c1ccc(CCc2nccc3ccccc23)cc1`, under setting [9], the survivor count is on record as 0 of 6. `COC(=O)c1[nH]cnc1N1CC[N+](CCCl)=N1`: the survivor count under setting [9] is reported as 2 of 6. `NC1CCCN(Cc2ccccc2)C1` (stereo not drawn): the survivor count (dose: 300.0 mg/kg/injection, schedule: Q04DX003 (ip), vehicle: saline) is recorded as 3 of 6.

With `COc1cc(Br)c(CC2c3cc(OCc4ccccc4)c(OC)cc3CCN2C)cc1OC` (stereo not drawn), the survivor count runs as follows: (dose: 200.0 mg/kg/injection, schedule: Q04DX003 (ip), vehicle: acetone) 1 of 6; (dose: 400.0 mg/kg/injection, schedule: Q04DX003 (ip), vehicle: acetone) 0 of 6.
